# Test results as given in PubChem BioAssay AID590 (National Center for Advancing Translational Sciences (NCATS), 2007).
# The whole screen tested about 59,000 compounds, of which about 6,500 (11%) were called active. Inconclusive means that the source gave no clear call. Such entries were picked first, then a sample of the others. No stated cut-off is given here; in the data, active means max dye-equivalent concentration above about 10 nM; inconclusive means mostly about 1.1 nM to 9.6 nM; inactive means weaker than that.
# Test: qHTS Assay for Spectroscopic Profiling in A350 Spectral Region
# Conditions: Compound autofluorescence, 340/450 nm, Alexa 350 dye-equivalents; active compounds read high
row,SMILES,max dye-equivalent concentration
1,CC1(c2ccccc2)NC(=O)N(CC(=O)N2CCOCC2)C1=O (configuration not stated),inconclusive: 1.3 nM
2,CNC(=O)c1cc2c(ccc3ccccc32)oc1=N,active: 11000 nM
3,COc1cc(C(c2nnnn2C2CCCC2)N2CCN(C)CC2)cc(OC)c1OC (configuration not stated),inconclusive: 2.2 nM
4,CC(=O)C1=C(C)OC(N)=C(C#N)C1c1ccncc1 (configuration not stated),inconclusive: 7.7 nM
5,CCCCC(=O)NCc1ccc2c(c1)cc(C)n2C,inconclusive: 8.2 nM
6,COC(=O)COc1ccc(S(=O)(=O)Nc2ccc(NC(C)=O)cc2)cc1,inactive
7,Cc1csc(NC(=O)c2cc3c(s2)CCC3)n1,inconclusive: 1.9 nM
8,CC(=O)N(O)CCCCCNC(=O)CCC(=O)N(O)CCCCCNC(=O)CCC(=O)N(O)CCCCCN,inactive
9,CCCc1cc(=O)[nH]c(SCC(=O)N(CC(C)C)C2CCS(=O)(=O)C2)n1 (configuration not stated),inactive
10,COC(=O)c1cc(=O)nc2sc(-c3cccs3)nn12,active: 59 nM
11,COc1ccc(OC(C)C(=O)N2CCc3ccccc3C2)cc1 (configuration not stated),inconclusive: 2.4 nM
12,CCCCCCNC(=O)CC(NS(=O)(=O)c1ccc(NC(C)=O)cc1)C(C)C (configuration not stated),inconclusive: 1.5 nM
13,CCN1CCN(c2nc3sc4c(c3c3ncnn23)CC(C)CC4)CC1 (configuration not stated),inconclusive: 1.1 nM
14,COc1ncc2nc(-c3ccc(F)cc3)c(=O)n(C)c2n1,inconclusive: 8.1 nM
15,CC(=O)SC[C@@H](Cc1ccccc1)C(=O)NCC(=O)OCc1ccccc1,inconclusive: 2.3 nM
16,Cc1noc(C)c1-c1nccc(N2CCNCC2)n1,active: 13 nM
17,CCOc1ccc2nc(NC(=O)C(CCSC)NS(=O)(=O)c3cccs3)sc2c1 (configuration not stated),inconclusive: 2.9 nM
18,CC(=O)c1c(COC(=O)c2cccnc2)nc2ccccc2[n+]1[O-],active: 17 nM
19,CCOC(=O)CSC1=C(C#N)C(c2ccco2)C(C(=O)OCc2ccccc2)=C(C)N1 (configuration not stated),inconclusive: 6.6 nM
20,O=C1Oc2ccccc2C(=O)/C1=C\N1C(=O)N/C(=C\c2ccccc2O)C1=O,inactive
21,O=C(Cn1c(=O)n(Cc2ccco2)c(=O)c2c3c(sc21)CCCC3)Nc1ccccc1,inactive
22,COc1ccc(OC)c(C2=C[N+](=O)C(C)(C)C(C)(C)N2[O-])c1,inactive
23,O=c1c(-c2ccc(Cl)cc2)nc2cnc(Nc3ccccc3)nc2n1C[C@H]1CCCO1,inconclusive: 4.9 nM

row,SMILES,max dye-equivalent concentration
1,c1nc(N2CCOCC2)c2[nH]cnc2n1,inconclusive: 1.5 nM
2,CNC(=O)CSc1nnc(COc2ccc(Cl)cc2)n1CCOC,inconclusive: 1.6 nM
3,O=C(OC1CCOC1=O)c1ccc(-c2nc3ccccc3s2)s1 (configuration not stated),active: 1100 nM
4,O=C(OCC#CCSc1nnc(-c2ccncc2)o1)c1cccs1,inconclusive: 1.5 nM
5,COC(=O)N1CCC2(CC1)CN(C(=O)Nc1ccccc1)C2,inactive
6,Cn1cccc1C(=O)N1CCC[C@@]2(CCN(C(=O)Nc3cccc(C#N)c3)C2)C1,inactive
7,Fc1ccc(NCc2nnc(SCc3nnc(-c4ccccc4)o3)n2Cc2ccccc2)cc1,inactive
8,CCn1c(=O)cc(SCC(=O)N2CCOCC2)c2ccccc21,inconclusive: 3.3 nM
9,CN(C)C(CNc1nnnn1-c1ccccc1)c1ccco1 (configuration not stated),inconclusive: 3.5 nM
10,C[N+]1(C)CCC[C@H]1C(=O)[O-],inconclusive: 1.4 nM
11,COc1ccc(C(=O)NCC(=O)n2nc(C)cc2C)cc1OC,inconclusive: 7.6 nM
12,COc1cccc2cc(C(=O)C3=C(O)C(=O)N(CCCN4CCOCC4)C3c3ccncc3)oc12 (configuration not stated),inconclusive: 1.2 nM
13,CC(=O)c1cccc(S(=O)(=O)NCC(c2ccco2)N2CCCCC2)c1 (configuration not stated),inconclusive: 9.1 nM
14,COc1ccccc1CNC(=O)N[C@@H](Cc1ccccc1)C(=O)O,inconclusive: 5.1 nM
15,COc1ccc(C2C(C(=O)c3sc(C)nc3C)=C(O)C(=O)N2CCN(C)C)cc1 (configuration not stated),inconclusive: 3.8 nM
16,C=CCn1c(SCC(=O)Nc2ccccc2CC)nnc1-c1ccncc1,inconclusive: 2.1 nM
17,CCCCCC(=O)N1CC2(C)CN(C(=O)CCCCC)CC(C)(C1)C2=O,inconclusive: 2.2 nM
18,O=C(NC1CCCCC1)c1ccc(S(=O)(=O)NCc2ccco2)cc1,inactive
19,O=C(Nc1nc2c(Cl)cccc2s1)c1ccc(Br)o1,inconclusive: 1.1 nM
20,CCOC(=O)CS(=O)(=O)c1nc(-c2ccccc2)cc(C(F)(F)F)n1,inconclusive: 2.1 nM
21,CS(=O)(=O)Nc1ccccc1C(=O)Nc1cccc(Cl)c1,inconclusive: 3.9 nM
22,c1ccc(-c2cn3c4c(sc3n2)CCCC4)cc1,inconclusive: 2.8 nM
23,CC(C)c1ccc(NS(=O)(=O)c2ccc3[nH]cc(C(=O)N4CCC(C(N)=O)CC4)c(=O)c3c2)cc1,inconclusive: 5 nM

# Exported with tabs: entries from further up.
row	SMILES	max dye-equivalent concentration
4	O=C(OCC#CCSc1nnc(-c2ccncc2)o1)c1cccs1	inconclusive: 1.5 nM
8	CCn1c(=O)cc(SCC(=O)N2CCOCC2)c2ccccc21	inconclusive: 3.3 nM
9	CN(C)C(CNc1nnnn1-c1ccccc1)c1ccco1 (configuration not stated)	inconclusive: 3.5 nM
11	COc1ccc(C(=O)NCC(=O)n2nc(C)cc2C)cc1OC	inconclusive: 7.6 nM

# Further structures.

row,SMILES,max dye-equivalent concentration
1,COCCNC(=O)c1c(N)sc2c1CCCC2,active: 43 nM
2,CCC(CC)C(=O)Nc1cc(OC)c(OC)cc1C(=O)O,inactive
3,O=c1cc(CSc2ccc(S(=O)(=O)N3CCCCC3)cn2)nc2sccn12,inconclusive: 3.1 nM
4,COC(=O)C1=C(CN2CCSCC2)NC(=O)NC1c1cc(C)ccc1C (configuration not stated),inactive
5,COc1ccc2cc(CCNC(=O)CC(C)(C)C)c(=O)[nH]c2c1,inconclusive: 2.5 nM
6,COCCn1c(-c2ccco2)nc2nc3ccccc3nc21,active: 20000 nM
7,CC[C@H]1NC(=O)c2cc(S(N)(=O)=O)c(Cl)cc2N1,active: 62 nM
8,Cc1ccccc1-c1nc(NC2CC2)c2ccccc2n1,inconclusive: 1.7 nM
9,Cn1cnnc1SCC(=O)Nc1sc2c(c1C(N)=O)CCC2,inactive
10,Cc1ccc(SCCNS(=O)(=O)c2ccc3c(c2)OCCO3)cc1,inactive
11,COC(=O)C1(CO)NC(c2cccs2)C2C(=O)N(c3ccccc3)C(=O)C21 (configuration not stated),inactive
12,CC(C)C(=O)Nc1ccccc1N1CCN(S(C)(=O)=O)CC1,active: 9300 nM
13,Cc1nc2ncnn2c(C)c1CCC(=O)Oc1ccccc1,inactive
14,Cn1c(SCC(=O)NCCc2ccccc2)nnc1-c1ccncc1,inconclusive: 2.3 nM
15,Cc1cc2n(n1)C(c1c[nH]c3ccccc13)Nc1ccccc1-2 (configuration not stated),inconclusive: 7.2 nM
16,CCOC(=O)c1c(NC(=O)c2ccn(CC)n2)sc2c1CCCC2,active: 80 nM
17,O=C1c2oc3ccccc3c(=O)c2C(c2cccnc2)N1CCCN1CCOCC1 (configuration not stated),inconclusive: 4.4 nM
18,CCOC(=O)C1CCN(CC(O)COc2ccc(C(C)(C)CC)cc2)CC1 (configuration not stated),inconclusive: 1.8 nM
19,CCCCn1c(SCc2ncc(-c3ccccc3)o2)nc2cc(S(N)(=O)=O)ccc21,inconclusive: 1.1 nM
20,CCOc1ccccc1NC(=O)CSc1nnc(-c2cnccn2)n1C,inconclusive: 8.4 nM
21,CCOC(=O)C1CCN(C(=O)CSCCSCC(=O)N2CCC(C(=O)OCC)CC2)CC1,inconclusive: 1.1 nM
22,CCOC(=O)C1CCN(C(=O)CSc2cc(=O)n(CC)c3ccccc23)CC1,inconclusive: 2.5 nM
23,CCc1cc2c(=O)c(-n3cnc4ccccc43)coc2cc1O,active: 310 nM

row,SMILES,max dye-equivalent concentration
1,O=C(CCCN1CCC(c2ccccc2)C1)c1ccc2c(c1)OCCO2 (configuration not stated),inconclusive: 6.9 nM
2,COc1ccc(C2C=C(C)Nc3nc(SC)nn32)cc1 (configuration not stated),active: 76 nM
3,C#CC1(O)CC(C)NCC1(C)CCC#N (configuration not stated),inactive
4,COc1cccc(-c2nccc(NCc3ccc(OC)cc3OC)n2)c1,inactive
5,Cc1ccccc1S(=O)(=O)O[C@@H]1NS(=O)(=O)c2ccccc21,inactive
6,Cc1nc(NCCCn2ccnc2)c2oc3ccccc3c2n1,inconclusive: 2.1 nM
7,CN1C(=S)SC(C)(C)C1NO (configuration not stated),inconclusive: 1.9 nM
8,N#CC1=C(N)N(c2ccc(Br)cc2)C2=C(C(=O)CCC2)C1c1cccnc1 (configuration not stated),inconclusive: 2.1 nM
9,Cc1c(O)ccc2c3c(c(=O)oc12)CCCC3,active: 2100 nM
10,O=C(c1ccco1)N1CCC2(CCN(Cc3cc(C(F)(F)F)cc(C(F)(F)F)c3)CC2)CC1,inactive
11,CCOC(=O)c1cc(=O)n2[nH]c(-c3ccc(C)cc3)cc2n1,active: 260 nM
12,CCCC(=O)Nc1ccc(S(=O)(=O)Nc2cc(C)nc(C)n2)cc1,inconclusive: 6.8 nM
13,Cc1ccc2nc3sc(C(=O)N4CCOCC4)c(N)c3cc2c1,inconclusive: 4 nM
14,CCCCc1c(O)nc(SCCN(C)C)n(-c2ccccc2)c1=O,inconclusive: 2 nM
15,N#C/C(=C\c1cccs1)Sc1nc2ccccc2s1,inconclusive: 3.4 nM
16,Cc1nc2ccccn2c1/C(O)=C1\C(=O)C(=O)N(CCN2CCOCC2)C1c1cccnc1 (configuration not stated),inconclusive: 2.4 nM
17,O=C(Nc1ccc(-c2nc3ncccc3o2)cc1)c1ccc(Br)o1,active: 850 nM
18,O=C(Nc1nncs1)c1ccccc1NS(=O)(=O)c1cccs1,active: 520 nM
19,O=C(Cc1coc2ccc3ccccc3c12)N1CCN(c2ncccn2)CC1,inconclusive: 2.9 nM
20,COc1ccc2cc3cc(C(=O)NCCN4CCN(c5ccccc5F)CC4)oc3nc2c1,active: 730 nM
21,COc1ncc2nc(-c3ccccc3)c(=O)n(Cc3cccs3)c2n1,inactive
22,O=C(Cn1ncc2c(=O)oc3ccccc3c21)Nc1nc2ccccc2s1,inactive
23,O=C(Nc1cccc(-c2cn3cccnc3n2)c1)c1ccco1,active: 1700 nM
